Measured values: PubChem BioAssay AID624297 (National Center for Advancing Translational Sciences (NCATS), 2012)
Several values for one entry are separate records, joined by “and”; a condition that tells them apart may be missing. Identical values can stand only once. The campaign covered roughly 340,000 compounds. About 6,200 (1.8%) were called active. This list was built around the results that the source calls inconclusive (neither active nor inactive); the mix of calls is not that of the screen. The call rests on the fitted dose curve; in most records, active means well fitted activation curve with a large enough effect; inconclusive means small, poorly fitted or top-dose-only effect; inactive means no such curve, though single readings can be large or run the other way. A potency beside an inconclusive call is a rough fit, not a confirmed value.

Assay: A quantitative high throughput screen for small molecules that induce DNA re-replication in SW480 colon adenocarcinoma cells. Further: nearly all actives have a fitted effect of over 55% in size. On re-replication activation: % of control where 0% means no effect.
Details: Hoechst DNA content imaging, 48 h; re-replication activation: at 46.1 µM (top of the series)
Summary of the method: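 Cells (250 per well) received 23 nL compound or DMSO by pin tool and were kept 48 hr at 37 C, 5% CO2. Nuclei were then stained with Hoechst for 40 min and scanned for DNA content.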
Potency means the concentration at half of the fitted maximal effect.

SMILES | Potency | re-replication activation
CCC1(c2ccccc2)C(=O)N(COC)C(=O)N(COC)C1=O | inconclusive: 22.4 µM [activator, single point] | 
O=C(C[N+]12CCC(CC1)C(CO)C2)c1ccc(Br)cc1 (stereo unspecified) |  | inactive: -6.24%
COCCO[C@H]1CC[C@@]2(C)C(=CCC3C2CC[C@@]2(C)C3CC[C@]2(C)O)C1 (stereo partly specified) | inconclusive: 20.6 µM [activator, partial curve, poor fit] | 
NCCc1c[nH]c2ccc(OCc3ccccc3)cc12 | inconclusive: 0.231 µM [activator, full curve, poor fit] | 
Cc1ccc2nc(Cl)c(-c3ccccc3)cc2c1 |  | inactive: -40.3%
COc1ccc(CC2c3cc(OC)c(OC)cc3CCN2C)cc1O (stereo unspecified) | inconclusive: 0.0041 µM [activator, full curve, poor fit] | 
Cn1cc[n+](C)c1P(=S)(c1ccccc1)c1ccccc1 |  | inactive: 1.85%
COc1cc(OC)cc(C(=O)NC(=S)N2C[C@H]3C[C@H](C2)c2cccc(=O)n2C3)c1 | inconclusive: 29.1 µM [activator, single point] | 
Cc1ccccc1NC(=NCCCN1CC1)Nc1ccccc1C | inconclusive: 29.1 µM [activator, single point] | 
Nn1c(CSc2nc3ccccc3o2)nnc1CSc1nc2ccccc2o1 | inconclusive: 17.8 µM [activator, partial curve, poor fit] | 
CN1CCN(c2ccc([N+](=O)[O-])c(N/N=C3\CN4CCC3CC4)c2)CC1 |  | inactive: -3.73%
ClCCN(CCCl)c1ccc(C=Cc2ccncn2)cc1 | inconclusive: 18.4 µM [activator, single point] | 
NCc1cccnc1 |  | inactive: -5.95%
CN(C)CC1CCCCC1OC(=O)Cc1ccc(Cl)c([N+](=O)[O-])c1 (stereo unspecified) | inconclusive: 15.8 µM [activator, single point] | 
O=C(NN=Cc1ccc(N(CCCl)CCCl)cc1)C(=O)c1c[nH]c2ccccc12 | inconclusive: 23.1 µM [activator, single point] | 
CN(C)CC(C(=O)Cc1ccccc1)c1ccccc1 (stereo unspecified) | active: 4.61 µM | 
Oc1ccc2c3c1O[C@H]1c4[nH]c5ccccc5c4C[C@@]4(O)[C@@H](C2)N(CC2CC2)CC[C@]314 | inconclusive: 0.0891 µM [activator, full curve, poor fit] | 
Cc1ccc(NC(=O)CCSc2nnc(Cc3ccccc3)o2)cc1 | inconclusive: 29.1 µM [activator, single point] | 
Cc1ccc(N=C(/N=C(\N)N[N+](=O)[O-])Nc2ccc(C)cc2)cc1 | inconclusive: 18.4 µM [activator, single point] | 
COc1ccc(CNC(=O)c2ccc(C(C)C)cc2)cc1 | inconclusive: 29.1 µM [activator, single point] | 
OC(c1ccccc1)(c1ccc(Cl)cc1)C1CN2CCC1CC2 (stereo unspecified) | inconclusive: 20.6 µM [activator, single point] | 
COc1cc2c3c(c1OC)Oc1ccc(cc1)C[C@H]1c4c(cc(OC)c(OC)c4Oc4ccc(cc4)C[C@@H]3N(C)CC2)CCN1C | active: 2.59 µM | 

SMILES | Potency | re-replication activation
CCOC(=O)CC(SP(=S)(OC)OC)C(=O)OCC (stereo unspecified) |  | inactive: -5.5%
O=C(/C=C/c1c[nH]c2ccccc12)c1c(O)n(CCc2ccccc2)c(=O)[nH]c1=O | active: 18.4 µM | 
CC1=CC(=Cc2sc3ccccc3[n+]2C)C=C(C)O1 | active: 5.8 µM | 
CCN(CC)CCNC(=O)c1nn(-c2ccc(C)cc2)c(=O)c2c1c1ccccc1n2C | inconclusive: 23.1 µM [activator, single point] | 
COc1ccc(NC(=O)c2cn(CCC#N)nc2-c2cccc([N+](=O)[O-])c2)cc1 |  | inactive: -6.57%
CN(C)C(=O)OCc1n(C)cc[n+]1C | inconclusive: 3.66 µM [activator, single point] | 
COc1ccc(C(=O)CC2C(=O)N(C)C(=O)N(C)C2=O)cc1 | inconclusive: 20.6 µM [activator, partial curve, poor fit] | 
COc1ccc(CN2CCCCC2c2cccnc2)cc1C (stereo unspecified) | inconclusive: 18.4 µM [activator, single point] | 
CCn1c(O)c(N=Nc2cccc(S(=O)(=O)N3CCOCC3)c2)c(=O)n(CC)c1=S | inconclusive: 25.9 µM [activator, single point] | 
COc1ccc(C)cc1NC(=O)c1c(C)nn(Cc2ccccc2)c1Cl | inconclusive: 29.1 µM [activator, partial curve, poor fit] | 
O=C1CN(O)C(c2ccccc2)=c2cc(Cl)ccc2=N1 | inconclusive: 11.6 µM [activator, partial curve, poor fit] | 
CC(C)c1ccc(NC(=O)N2C[C@H]3C[C@@H](C2)c2cccc(=O)n2C3)cc1 | inconclusive: 2.59 µM [activator, partial curve, poor fit] | 
COc1ccc(C(=O)C2CN(C)CC2C(=O)c2ccc(OC)cc2)cc1 (stereo unspecified) | inconclusive: 29.1 µM [activator, single point] | 
COC(=O)C1=C(c2ccccc2OCc2ccccc2)C[C@@H]2CC[C@H]1N2C(=O)NCc1ccc(F)cc1 | inconclusive: 29.1 µM [activator, single point] | 
O=C1Nc2ccc(Cl)cc2C(c2ccccc2Cl)=NC1O (stereo unspecified) |  | inactive: 4.7%
Cc1ccc2[nH]c(C)c(CCNCc3cccnc3)c2c1 | inconclusive: 29.1 µM [activator, single point] | 
CCC(=O)Nc1ccc(N2CCN(CC)CC2)c(Cl)c1 |  | inactive: -28.4%
NC(=O)c1c(Br)n(C2OC(CO)C(O)C2O)c2ncnc(N)c12 (stereo unspecified) | inconclusive: 3.26 µM [activator, full curve] | 
c1ccc(-c2ccc(C(c3ccccc3)n3ccnc3)cc2)cc1 (stereo unspecified) | inactive and inconclusive: 29.1 µM [activator, single point] | 
CC(=O)O[C@H]1C[C@@H]2OC3C=C(C)CCC3(C)[C@@]1(C)[C@@]21CO1 (stereo partly specified) | active: 9.2 µM | 
Oc1ccc2[nH]cc(CCCCN3CC=C(c4ccccc4)CC3)c2c1 |  | inactive: 1.27%
COc1ccc2[nH]c3c(c2c1)CCN1C(=O)C(CC(=O)NCc2cccc(C(F)(F)F)c2)C[C@H](C(=O)N2CCCCC2)[C@@]31C (stereo partly specified) | inconclusive: 25.9 µM [activator, partial curve, poor fit] | 

SMILES | Potency | re-replication activation
CCCCn1c(O)c(C(=O)/C=C/c2c[nH]c3ccccc23)c(=O)[nH]c1=O | inconclusive: 16.4 µM [activator, single point] | 
NC(=O)c1cc([N+](=O)[O-])cc([N+](=O)[O-])c1 | inconclusive: 0.231 µM [activator, partial curve, poor fit] | 
COC(=O)C1=C(c2cc3ccccc3s2)C[C@@H]2CC[C@H]1N2C(=O)NCc1ccc(C(F)(F)F)cc1 |  | inactive: -6.87%
COC(=O)c1sccc1NC(=O)c1ccc(C#N)cc1 | inconclusive: 6.51 µM [activator, single point] | 
CNCC(O)c1cc(OCc2ccccc2)c(OCc2ccccc2)cc1F (stereo unspecified) |  | inactive: 21.5%
Cc1ccnc(NC(=O)CCCc2ccc(N(CCCl)CCCl)cc2)n1 | inconclusive: 23.1 µM [activator, single point] | 
Cc1cc(Cl)ccc1OCCCC(=O)NCc1cccs1 | inconclusive: 18.4 µM [activator, single point] | 
O=c1[nH]c(=O)n(Cc2ccccc2)c(O)c1C=NCCN1CCNCC1 | active: 6.51 µM | 
CC(=O)c1cn(Cc2ccccc2C#N)c2ccccc12 | inconclusive: 29.1 µM [activator, single point] | 
COc1ccc(-n2c(/C=C/c3ccc(O)c(O)c3)nc3ccccc3c2=O)cc1 | inconclusive: 10.3 µM [activator, partial curve, poor fit] | 
O=C(O)c1cccc(N=Nc2c(O)[nH]c(=O)[nH]c2=O)c1 | inconclusive: 0.13 µM [activator, full curve, poor fit] | 
CN1C(=O)/C(=C/c2ccc(Cl)s2)C(=O)NC1=S | inconclusive: 20.6 µM [activator, single point] | 
O=P1(Nc2ccc(F)cc2)COc2ccccc2OC1 |  | inactive: -2.27%
Cc1ccsc1C(=O)C1CCCN(Cc2ccc(-n3cccn3)cc2)C1 (stereo unspecified) | inconclusive: 3.66 µM [activator, partial curve] | 
C=C1C(=O)OC2CC(C)C3C=CC(=O)C3(C)C(O)C12 (stereo unspecified) | inconclusive: 0.58 µM [activator, full curve, poor fit] | 
Cc1nn(Cc2ccccc2Cl)c(C)c1C(=O)NC1CCCc2ccccc21 (stereo unspecified) |  | inactive: 22.9%
CC(C)Oc1ccc(CNC(=O)Oc2ccccc2)cc1 | inconclusive: 18.4 µM [activator, single point] | 
OC(CN1CCC(c2c[nH]c3ccccc23)CC1)C(F)(F)F (stereo unspecified) |  | inactive: -8.3%
CC12CCC(O)CC1CCC1C2CCC2(C)C(C3=CC(=O)OC3)CCC12O (stereo unspecified) | active: 5.8 µM | 
CN1CCc2cc(O)cc3c2[C@H]1Cc1ccc(O)c(O)c1-3 | inconclusive: 0.794 µM [activator, full curve, poor fit] | 
O=c1[nH]c(O)c(C=NCCc2ccccc2)c(=O)[nH]1 |  | inactive: -15.2%
COc1ccc(C(=O)Oc2cccc3cccnc23)cc1S(=O)(=O)N1CCOCC1 | inconclusive: 18.4 µM [activator, single point] | 
